Experimental data published in the supplement of paper PMC10849652.
This is one part of the list.

Amino acid sequences for entries named in this document (tags omitted). A change or cut given only in a name is not applied to a line headed by its entry.
UniProt A8CG34, whole entry, looked up: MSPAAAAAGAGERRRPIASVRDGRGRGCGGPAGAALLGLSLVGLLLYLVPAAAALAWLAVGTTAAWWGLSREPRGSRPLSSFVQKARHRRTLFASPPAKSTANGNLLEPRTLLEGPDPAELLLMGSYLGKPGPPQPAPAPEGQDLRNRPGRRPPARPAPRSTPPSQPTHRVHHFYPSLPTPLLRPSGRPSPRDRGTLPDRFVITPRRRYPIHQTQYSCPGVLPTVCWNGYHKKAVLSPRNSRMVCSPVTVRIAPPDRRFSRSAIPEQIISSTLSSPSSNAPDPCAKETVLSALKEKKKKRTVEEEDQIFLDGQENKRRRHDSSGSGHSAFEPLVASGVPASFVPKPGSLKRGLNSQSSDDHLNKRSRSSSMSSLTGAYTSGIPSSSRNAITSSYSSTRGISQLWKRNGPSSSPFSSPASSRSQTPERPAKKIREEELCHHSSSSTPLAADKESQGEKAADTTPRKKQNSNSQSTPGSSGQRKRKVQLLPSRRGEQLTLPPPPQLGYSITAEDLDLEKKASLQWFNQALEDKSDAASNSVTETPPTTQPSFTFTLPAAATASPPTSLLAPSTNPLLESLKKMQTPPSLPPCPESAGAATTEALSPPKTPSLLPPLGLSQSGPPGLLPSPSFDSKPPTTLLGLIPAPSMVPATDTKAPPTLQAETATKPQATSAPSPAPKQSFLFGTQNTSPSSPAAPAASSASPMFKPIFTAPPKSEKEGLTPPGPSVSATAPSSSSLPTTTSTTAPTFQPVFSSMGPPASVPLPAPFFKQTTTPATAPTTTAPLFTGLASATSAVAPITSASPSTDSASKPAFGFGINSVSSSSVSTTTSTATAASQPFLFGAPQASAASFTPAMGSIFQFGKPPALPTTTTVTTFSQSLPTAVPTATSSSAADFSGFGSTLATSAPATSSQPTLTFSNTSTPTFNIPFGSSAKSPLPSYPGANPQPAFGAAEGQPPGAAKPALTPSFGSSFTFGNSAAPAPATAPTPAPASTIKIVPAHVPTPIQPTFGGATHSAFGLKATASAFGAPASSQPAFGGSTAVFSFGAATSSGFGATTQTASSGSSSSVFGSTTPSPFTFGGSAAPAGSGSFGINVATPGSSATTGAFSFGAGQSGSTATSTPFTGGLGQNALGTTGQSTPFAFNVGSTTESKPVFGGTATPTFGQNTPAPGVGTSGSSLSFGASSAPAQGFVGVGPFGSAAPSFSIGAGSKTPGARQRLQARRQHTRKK
UniProt Q6EEV4: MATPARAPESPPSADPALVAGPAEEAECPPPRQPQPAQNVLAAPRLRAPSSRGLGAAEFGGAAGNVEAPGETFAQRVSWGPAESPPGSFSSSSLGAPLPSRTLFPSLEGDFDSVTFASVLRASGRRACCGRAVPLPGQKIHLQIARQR
UniProt O75145: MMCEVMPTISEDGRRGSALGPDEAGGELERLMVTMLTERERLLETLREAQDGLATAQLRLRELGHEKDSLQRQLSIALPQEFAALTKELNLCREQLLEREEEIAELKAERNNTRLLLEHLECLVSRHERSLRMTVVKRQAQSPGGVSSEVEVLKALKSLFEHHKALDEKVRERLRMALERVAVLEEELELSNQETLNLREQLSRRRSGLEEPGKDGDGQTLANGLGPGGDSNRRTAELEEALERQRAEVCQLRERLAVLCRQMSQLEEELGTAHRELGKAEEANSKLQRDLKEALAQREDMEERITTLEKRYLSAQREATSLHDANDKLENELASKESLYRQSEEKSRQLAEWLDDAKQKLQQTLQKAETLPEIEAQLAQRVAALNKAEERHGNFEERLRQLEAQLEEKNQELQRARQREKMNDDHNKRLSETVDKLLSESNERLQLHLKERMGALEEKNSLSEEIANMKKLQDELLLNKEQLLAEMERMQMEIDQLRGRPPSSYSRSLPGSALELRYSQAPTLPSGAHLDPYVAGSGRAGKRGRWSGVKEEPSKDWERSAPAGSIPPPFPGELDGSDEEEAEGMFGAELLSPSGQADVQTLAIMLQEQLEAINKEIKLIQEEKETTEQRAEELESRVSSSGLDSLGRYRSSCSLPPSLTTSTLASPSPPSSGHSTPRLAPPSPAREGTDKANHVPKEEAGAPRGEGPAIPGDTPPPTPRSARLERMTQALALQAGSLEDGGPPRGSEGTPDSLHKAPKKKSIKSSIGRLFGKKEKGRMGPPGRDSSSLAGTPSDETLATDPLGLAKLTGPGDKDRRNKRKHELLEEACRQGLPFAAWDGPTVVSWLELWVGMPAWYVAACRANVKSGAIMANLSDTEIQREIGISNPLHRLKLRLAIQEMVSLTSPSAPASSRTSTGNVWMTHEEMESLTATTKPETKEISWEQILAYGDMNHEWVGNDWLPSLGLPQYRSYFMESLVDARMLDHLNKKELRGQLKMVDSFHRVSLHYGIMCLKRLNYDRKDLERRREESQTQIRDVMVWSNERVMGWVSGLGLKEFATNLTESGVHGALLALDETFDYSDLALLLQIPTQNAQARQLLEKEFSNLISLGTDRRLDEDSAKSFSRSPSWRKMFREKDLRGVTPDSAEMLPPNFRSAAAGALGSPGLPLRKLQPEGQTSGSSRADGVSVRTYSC
UniProt P11086: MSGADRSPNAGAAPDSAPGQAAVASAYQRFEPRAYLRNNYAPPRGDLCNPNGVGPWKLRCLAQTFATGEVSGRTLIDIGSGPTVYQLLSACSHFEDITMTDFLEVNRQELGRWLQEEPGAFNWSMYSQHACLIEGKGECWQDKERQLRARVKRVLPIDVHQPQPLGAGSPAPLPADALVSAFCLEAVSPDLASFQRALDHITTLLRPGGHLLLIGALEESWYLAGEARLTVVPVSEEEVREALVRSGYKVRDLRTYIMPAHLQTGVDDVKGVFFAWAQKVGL
UniProt Q8NEY8: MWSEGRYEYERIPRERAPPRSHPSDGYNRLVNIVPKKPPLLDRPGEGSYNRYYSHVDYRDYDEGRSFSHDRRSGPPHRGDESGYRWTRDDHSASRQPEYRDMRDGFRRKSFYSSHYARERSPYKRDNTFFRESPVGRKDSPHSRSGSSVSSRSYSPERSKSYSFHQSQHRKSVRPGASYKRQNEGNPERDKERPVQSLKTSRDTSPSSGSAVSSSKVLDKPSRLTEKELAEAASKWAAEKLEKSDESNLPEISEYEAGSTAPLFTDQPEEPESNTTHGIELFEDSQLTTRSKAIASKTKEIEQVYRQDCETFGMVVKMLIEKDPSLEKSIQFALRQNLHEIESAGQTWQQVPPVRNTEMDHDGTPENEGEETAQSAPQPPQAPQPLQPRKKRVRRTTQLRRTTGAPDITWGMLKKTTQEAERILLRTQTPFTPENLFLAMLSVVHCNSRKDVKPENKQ
UniProt P56282: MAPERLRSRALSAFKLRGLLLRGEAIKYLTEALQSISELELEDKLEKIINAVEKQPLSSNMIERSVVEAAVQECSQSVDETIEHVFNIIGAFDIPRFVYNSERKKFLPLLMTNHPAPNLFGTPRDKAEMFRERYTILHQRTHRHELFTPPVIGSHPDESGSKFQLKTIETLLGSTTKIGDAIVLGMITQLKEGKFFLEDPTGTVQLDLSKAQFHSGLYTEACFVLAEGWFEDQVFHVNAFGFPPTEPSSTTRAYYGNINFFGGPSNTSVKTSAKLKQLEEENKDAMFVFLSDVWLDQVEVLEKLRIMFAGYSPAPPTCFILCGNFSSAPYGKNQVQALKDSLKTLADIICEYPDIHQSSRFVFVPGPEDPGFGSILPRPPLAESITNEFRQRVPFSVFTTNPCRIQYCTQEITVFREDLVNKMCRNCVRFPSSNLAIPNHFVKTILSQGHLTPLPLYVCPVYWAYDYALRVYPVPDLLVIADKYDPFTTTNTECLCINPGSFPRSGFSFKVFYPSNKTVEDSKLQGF
UniProt Q15126: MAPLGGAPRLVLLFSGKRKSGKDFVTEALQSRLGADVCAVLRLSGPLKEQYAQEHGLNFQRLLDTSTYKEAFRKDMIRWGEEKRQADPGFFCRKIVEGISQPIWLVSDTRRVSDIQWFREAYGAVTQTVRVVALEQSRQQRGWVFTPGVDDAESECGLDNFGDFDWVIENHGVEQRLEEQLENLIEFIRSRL
UniProt Q9UKY4: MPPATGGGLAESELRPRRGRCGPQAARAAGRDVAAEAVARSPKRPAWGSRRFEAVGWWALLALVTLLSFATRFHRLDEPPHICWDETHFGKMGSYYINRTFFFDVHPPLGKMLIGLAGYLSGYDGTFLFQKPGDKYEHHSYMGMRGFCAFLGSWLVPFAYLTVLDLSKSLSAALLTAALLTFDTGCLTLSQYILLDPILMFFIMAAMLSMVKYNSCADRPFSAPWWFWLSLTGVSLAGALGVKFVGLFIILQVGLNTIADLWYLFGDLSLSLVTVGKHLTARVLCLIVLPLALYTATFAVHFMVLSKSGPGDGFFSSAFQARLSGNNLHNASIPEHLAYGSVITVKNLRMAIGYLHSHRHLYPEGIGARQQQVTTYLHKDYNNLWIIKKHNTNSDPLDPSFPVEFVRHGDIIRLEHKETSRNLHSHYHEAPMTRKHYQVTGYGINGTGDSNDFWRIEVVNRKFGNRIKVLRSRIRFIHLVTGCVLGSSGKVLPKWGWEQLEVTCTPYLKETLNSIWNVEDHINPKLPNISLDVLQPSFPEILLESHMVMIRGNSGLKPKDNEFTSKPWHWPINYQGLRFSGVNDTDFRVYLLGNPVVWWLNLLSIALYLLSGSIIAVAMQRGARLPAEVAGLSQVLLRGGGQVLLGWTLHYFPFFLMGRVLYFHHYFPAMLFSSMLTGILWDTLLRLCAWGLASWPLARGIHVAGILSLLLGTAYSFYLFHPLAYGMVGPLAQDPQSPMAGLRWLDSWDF
UniProt O00592: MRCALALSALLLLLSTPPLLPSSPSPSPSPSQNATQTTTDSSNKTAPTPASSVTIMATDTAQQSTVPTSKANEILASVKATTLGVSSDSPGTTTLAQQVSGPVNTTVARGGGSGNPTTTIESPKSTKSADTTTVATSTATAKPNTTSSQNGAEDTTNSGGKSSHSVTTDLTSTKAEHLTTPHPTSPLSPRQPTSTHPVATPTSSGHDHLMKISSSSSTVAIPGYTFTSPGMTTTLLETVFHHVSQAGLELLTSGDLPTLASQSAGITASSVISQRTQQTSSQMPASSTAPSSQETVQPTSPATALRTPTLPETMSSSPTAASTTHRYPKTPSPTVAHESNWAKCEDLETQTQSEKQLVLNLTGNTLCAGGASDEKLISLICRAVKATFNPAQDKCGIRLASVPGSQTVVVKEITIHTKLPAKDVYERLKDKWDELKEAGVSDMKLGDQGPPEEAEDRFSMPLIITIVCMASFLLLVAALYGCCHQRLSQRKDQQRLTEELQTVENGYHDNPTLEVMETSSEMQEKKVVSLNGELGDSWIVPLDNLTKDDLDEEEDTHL
UniProt Q9H237: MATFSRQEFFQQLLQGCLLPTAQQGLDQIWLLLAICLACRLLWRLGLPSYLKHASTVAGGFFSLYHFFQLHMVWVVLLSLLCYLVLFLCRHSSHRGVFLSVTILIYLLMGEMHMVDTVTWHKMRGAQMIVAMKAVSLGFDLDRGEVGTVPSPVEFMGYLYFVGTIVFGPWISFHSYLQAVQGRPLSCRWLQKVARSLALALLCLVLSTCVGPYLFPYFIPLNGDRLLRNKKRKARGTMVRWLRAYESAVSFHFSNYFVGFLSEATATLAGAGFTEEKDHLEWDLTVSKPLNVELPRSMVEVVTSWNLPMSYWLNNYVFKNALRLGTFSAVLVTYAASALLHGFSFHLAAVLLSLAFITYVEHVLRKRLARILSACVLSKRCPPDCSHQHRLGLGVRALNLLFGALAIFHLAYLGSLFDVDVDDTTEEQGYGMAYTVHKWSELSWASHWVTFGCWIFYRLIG
UniProt Q9NRY6: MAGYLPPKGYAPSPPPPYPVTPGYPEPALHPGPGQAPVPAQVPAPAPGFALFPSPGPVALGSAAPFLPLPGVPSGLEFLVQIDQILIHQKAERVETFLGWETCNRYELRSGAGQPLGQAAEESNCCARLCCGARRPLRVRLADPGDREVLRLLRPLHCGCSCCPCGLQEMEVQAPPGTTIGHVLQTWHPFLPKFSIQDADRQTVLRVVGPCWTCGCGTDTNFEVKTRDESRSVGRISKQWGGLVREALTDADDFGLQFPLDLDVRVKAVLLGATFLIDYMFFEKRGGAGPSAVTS
UniProt Q8IYS1: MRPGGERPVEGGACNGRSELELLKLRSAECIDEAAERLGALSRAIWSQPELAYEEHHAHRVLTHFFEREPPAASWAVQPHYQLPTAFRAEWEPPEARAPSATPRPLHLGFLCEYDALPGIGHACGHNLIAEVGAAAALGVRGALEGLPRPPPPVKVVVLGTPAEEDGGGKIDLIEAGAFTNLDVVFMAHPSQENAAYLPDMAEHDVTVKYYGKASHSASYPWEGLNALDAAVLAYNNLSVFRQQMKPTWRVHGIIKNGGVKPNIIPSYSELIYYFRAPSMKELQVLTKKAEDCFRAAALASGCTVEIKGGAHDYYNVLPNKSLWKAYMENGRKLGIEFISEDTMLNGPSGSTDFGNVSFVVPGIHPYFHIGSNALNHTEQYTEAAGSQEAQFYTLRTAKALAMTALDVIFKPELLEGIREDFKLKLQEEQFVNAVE

How the values were obtained:
Assay in all cases: log2 fold change, soluble protein after heating vs DMSO (PISA); higher = thermal stabilisation; K562 cells, 10 uM, 30 min; active = over 0.2 and 3.5 SD of the protein, either way, in both replicates (recomputed)
[1] = compound: CS(=O)(=O)c1ccc(-c2cnc(N)c(C(=O)Nc3ccccc3)n2)cc1
Method in brief: (§1)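 K562 cells at 2×10^6 cells/mL were treated for 30 min with 10 μM compound, and aliquots were heated for 3 min over 48°C-58°C before pooling. Extraction used PBS with 0.5% NP-40 at 4°C, and soluble protein was the supernatant after 21,000xg for 90 min, measured by TMTpro 16plex LC-MS/MS with channel sums equalised. Thermal stability values, relative to control samples and from duplicates, are log2 fold changes.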

[2] = compound: C[C@@H](Oc1cc(-c2cnn(C3CCNCC3)c2)cnc1N)c1c(Cl)ccc(F)c1Cl [crizotinib]
Method in brief: as §1

[3] = compound: C[C@@H]1COCCN1C2=NC(=NC(=C2)C3(CC3)S(=O)(=O)C)C4=C5C=CNC5=CC=C4
Method in brief: as §1

[4] = compound: C[C@H](C1=CC=C(C=C1)C(=O)NC2=C3C=CNC3=NC=C2)N
Method in brief: as §1

[5] = compound: Cc1cc(Nc2cc(CN3CCOCC3)c3nc(C)c(Cc4ccc(Cl)cc4F)n3n2)n[nH]1 [gandotinib]
Method in brief: as §1

[6] = compound: Cc1cc(SCc2sc(-c3ccc(C(F)(F)F)cc3)nc2C)ccc1OCC(=O)O
Method in brief: as §1

[7] = compound: Cc1ccc(-n2nc(C(C)(C)C)cc2NC(=O)Nc2ccc(OCCN3CCOCC3)c3ccccc23)cc1 [doramapimod]
Method in brief: as §1

[8] = compound: Cc1ccc(C(=O)N(CCCN)[C@@H](c2nc3cc(Cl)ccc3c(=O)n2Cc2ccccc2)C(C)C)cc1 [ispinesib]
Method in brief: as §1

[9] = compound: C[C@H](Nc1ncnc2nc[nH]c12)c1cc2cccc(Cl)c2c(=O)n1-c1ccccc1 [duvelisib]
Method in brief: as §1

[10] = compound: Cc1cc(Nc2cc(N3CCN(C)CC3)nc(Sc3ccc(NC(=O)C4CC4)cc3)n2)n[nH]1 [tozasertib]
Method in brief: as §1

Measured: log2 fold change

POLD1 (UniProt P28340)
inactive: [1] 0.019 | [2] -0.042 | [3] 0.041 | [4] -0.025 | [5] 0.036 | [6] 0.046 | [7] -0.018 | [8] -0.01

POMK (UniProt Q9H5K3)
inactive: [1] -0.013 | [2] -0.044 | [3] -0.034 | [4] 0.086 | [5] 0.027 | [6] 0.092 | [7] 0.108 | [8] -0.203

POMP (UniProt Q9Y244)
inactive: [1] -0.086 | [2] -0.059 | [3] -0.023 | [4] -0.076 | [5] 0.027 | [6] -0.245 | [7] -0.143 | [8] 0.108

PLVAP (UniProt Q9BX97)
inactive: [1] -0.058 | [3] 0.335 | [4] 0.226 | [9] 0.162 | [5] -0.198 | [10] 0.115 | [6] -0.125 | [8] 0.02

POLRMT (UniProt O00411)
inactive: [1] -0.082 | [2] -0.18 | [3] -0.097 | [9] 0.017 | [6] -0.069 | [7] 0.179

POM121C (UniProt A8CG34)
inactive: [1] 0.021 | [2] -0.275 | [7] 0.057 | [8] -0.071

PPIL1 (UniProt Q9Y3C6)
inactive: [1] -0.029 | [2] 0.038 | [3] 0.018 | [4] 0.012 | [5] 0.045 | [6] 0.014 | [7] 0.031 | [8] -0.089

POLR3D (UniProt P05423)
inactive: [1] 0.088 | [2] -0.035 | [3] -0.064 | [4] 0.112 | [5] -0.056 | [6] -0.085 | [7] 0.022 | [8] -0.05

POLR2M (UniProt Q6EEV4)
inactive: [1] -0.03 | [2] -0.021 | [3] 0.16 | [4] -0.078 | [6] -0.061 | [7] -0.04

POLR1E isoform 1 (UniProt Q9GZS1)
inactive: [9] -0.018 | [6] 0.072 | [8] -0.531

PPIG (UniProt Q13427)
inactive: [2] -0.149 | [9] -0.024 | [6] 0.273 | [7] -0.103 | [8] -0.033

POLR2E (UniProt P19388)
inactive: [2] 0.112 | [3] -0.027 | [4] 0.14 | [5] 0.157 | [6] 0.089 | [7] -0.078 | [8] -0.058

PPFIA3 (UniProt O75145)
inactive: [3] -0.094 | [4] 0.15

PNMT (UniProt P11086)
inactive: [1] -0.05 | [4] 0.12 | [9] 0.079 | [10] -0.068 | [6] 0.147

POLQ (UniProt O75417)
inactive: [5] 0.198 | [8] -0.026

PPHLN1 (UniProt Q8NEY8)
inactive: [2] 0.094 | [9] 0.153 | [5] -0.098 | [6] -0.089 | [7] 0.076 | [8] -0.155

PPHLN1 isoform 3 (UniProt Q8NEY8)
inactive: [4] -0.138 | [10] -0.149

POLE2 (UniProt P56282)
inactive: [2] 0.138 | [5] -0.047 | [7] 0.148 | [8] -0.014

PMVK (UniProt Q15126)
inactive: [1] 0.088 | [3] 0.02 | [4] 0.083 | [6] 0.333
active: [5] -0.705

POLG, A0A3B3IS91
inactive: [9] 0.204 | [10] -0.113 | [6] -0.001

POT1 (UniProt Q9NUX5)
inactive: [1] -0.056 | [3] -0.105 | [10] -0.146 | [8] -0.024

POMT2 (UniProt Q9UKY4)
inactive: [2] -0.014 | [4] 0.105 | [9] 0.154 | [10] -0.121 | [6] 0.005 | [7] 0.146 | [8] -0.116

PNPLA6 (UniProt Q8IY17)
inactive: [2] -0.061 | [3] -0.087 | [4] 0.153 | [9] 0.058 | [10] 0.142 | [6] -0.125 | [7] 0.216 | [8] 0.347

POLD4 (UniProt Q9HCU8)
inactive: [2] 0.021 | [4] 0.057 | [9] 0.031 | [5] -0.113 | [10] -0.076 | [6] -0.066 | [7] 0.028 | [8] 0.031

POC1A (UniProt Q8NBT0)
inactive: [2] -0.308 | [4] 0.234 | [9] -0.272 | [10] -0.041 | [6] 0.045 | [7] -0.044

POMT1 (UniProt Q9Y6A1)
inactive: [2] 0 | [3] 0.032 | [9] 0.14 | [10] -0.039 | [6] -0.012 | [7] 0.265

PLPPR3 isoform 3 (UniProt Q6T4P5)
inactive: [3] -0.007 | [4] -0.098 | [5] 0.184 | [8] -0.436

POLR2J (UniProt P52435)
inactive: [3] 0.195 | [4] 0.098 | [9] 0.051 | [5] 0.194 | [6] 0.033

PODXL (UniProt O00592)
inactive: [5] -0.09

PPIA isoform 2 (UniProt P62937)
inactive: [3] 0.107 | [4] 0.115 | [9] 0.132 | [5] -0.17 | [10] 0.001 | [6] -0.084 | [8] -0.245

PORCN (UniProt Q9H237)
inactive: [4] -0.055 | [8] -0.248

POLE (UniProt Q07864)
inactive: [4] 0.345 | [5] -0.023 | [8] -0.466

PLEKHJ1 (UniProt Q9NW61)
inactive: [3] -0.01 | [4] 0.207 | [9] -0.131 | [6] 0.37 | [8] -0.086

POLR2L (UniProt P62875)
inactive: [1] -0.043 | [3] -0.046 | [4] 0.09 | [9] 0.029 | [5] 0.114 | [10] 0.063 | [6] -0.021 | [8] -0.104

PLXND1 (UniProt Q9Y4D7)
inactive: [2] -0.203 | [9] 0.189 | [6] 0.229 | [7] 0.072 | [8] -0.877

PLSCR3 (UniProt Q9NRY6)
inactive: [4] -0.192 | [5] -0.105

POLB (UniProt P06746)
inactive: [1] -0.078 | [3] -0.003 | [4] 0.036 | [5] 0.081 | [6] -0.045 | [8] -0.1

Quoted from the listing (3 entries):
PPHLN1 isoform 3 (UniProt Q8NEY8)
inactive: [4] -0.138 | [10] -0.149

POLE2 (UniProt P56282)
inactive: [2] 0.138 | [5] -0.047 | [7] 0.148 | [8] -0.014

PMVK (UniProt Q15126)
inactive: [1] 0.088 | [3] 0.02 | [4] 0.083 | [6] 0.333
active: [5] -0.705

The list goes on:

PLEKHO2 (UniProt Q8TD55)
inactive: [2] -0.068 | [4] 0.116 | [5] 0.004 | [10] -0.11 | [7] 0.056 | [8] -0.242

POF1B isoform 1 (UniProt Q8WVV4)
inactive: [9] -0.098 | [10] 0.152 | [6] 0.243

PM20D2 (UniProt Q8IYS1)
inactive: [1] -0.022 | [9] 0.151 | [10] -0.035 | [6] -0.016 | [8] -0.183

PMS2CL (UniProt Q68D20)
inactive: [3] -0.091 | [8] 0.105

PLOD2 isoform 2 (UniProt O00469)
inactive: [2] 0.079 | [9] -0.015 | [6] 0.035 | [7] -0.028
